The supplement of paper PMC10727501
Some of the results follow. This data set is noisy: repeats of one test often differ as much as different tests do.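 Free-swimming zebrafish larvae were assessed for O-bend response probability to dark flashes (naive: first five; training: remaining flashes across four 60-flash blocks; test: later 60-flash block) and for OMR turning toward alternating leftward/rightward LED motion. Six treated larvae were compared against sixty 0.1% DMSO controls; hits required |SSMD|≥2.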

Legend:
Details in all cases: 10 µM; pre-incubation: 30-90 min
[1] = tested on: Danio rerio larvae (5 dpf, TLF); assay: OMR-Perf (SSMD vs DMSO vehicle); higher = higher than vehicle (e.g. higher dark-flash O-bend response probability, or better optomotor performance)
[2] = tested on: Danio rerio larvae (5 dpf, TLF); assay: Prob-Test (SSMD vs DMSO vehicle); higher = higher than vehicle (e.g. higher dark-flash O-bend response probability, or better optomotor performance)
[3] = tested on: Danio rerio larvae (5 dpf, TLF); assay: Prob-Naive (SSMD vs DMSO vehicle); higher = higher than vehicle (e.g. higher dark-flash O-bend response probability, or better optomotor performance)
[4] = tested on: Danio rerio larvae (5 dpf, TLF); assay: Prob-Train (SSMD vs DMSO vehicle); higher = higher than vehicle (e.g. higher dark-flash O-bend response probability, or better optomotor performance)

Row | Structure (SMILES) | OMR-Perf [1] | Prob-Test [2] | Prob-Naive [3] | Prob-Train [4]
1 | CC(=C(CCOP(=O)(O)O)SC(=O)c1ccccc1)N(C=O)Cc1cnc(C)nc1N [Benfotiamine] | 0.334 | 0.211 | 0.457 | 0.54
2 | O=C(Nc1ccccc1)Nc1ccc(-c2ccc(C(=O)[C@@H]3CCC[C@@H]3C(=O)O)cc2)cc1 | -0.152 | 0.364 | -0.109 | 0.819
3 | COc1cc(NS(=O)(=O)c2ccc(N)cc2)nc(OC)n1 [Sulphadimethoxine] | -0.396 | -0.0724 | -0.399 | -0.406
4 | CCN1CCC[C@H]1CNC(=O)c1cc(S(N)(=O)=O)ccc1OC [Levosulpiride] | 0.258 | 0.139 | 0.0562 | 0.352
5 | CN1CCN(C2=Nc3cc(Cl)ccc3Nc3ccccc32)CC1 [Clozapine] | -0.793 | -0.889 | -0.105 | -0.798
6 | O=C1NC(=O)C(c2ccccc2[N+](=O)[O-])=C1Nc1ccc(O)c(Cl)c1 | 0.121 | -0.155 | -0.13 | 0.22
7 | COCCc1ccc(OCC(O)CNC(C)C)cc1.COCCc1ccc(OCC(O)CNC(C)C)cc1.O=C(O)[C@H](O)[C@@H](O)C(=O)O (stereo not given) [Metoprolol Tartrate] | 0.556 | -0.0346 | 0.511 | 0.328
8 | CC(C)CCNC(=O)C(CC(C)C)NC(=O)C1OC1C(=O)O (stereo not given) [Loxistatin Acid (E-64C)] | -0.406 | 0.174 | -0.484 | -0.0694
9 | CN(C)C(=N)NC(=N)N.Cl [Metformin hydrochloride (Glucophage)] | 0.066 | -0.183 | 0.507 | -0.178
10 | COc1c(C)c(C(=O)c2ccc(N)c(C(=O)[O][Na])c2)n2ccccc12 | -0.112 | 0.171 | 0.145 | 0.142
11 | CC(C)(C#N)c1cc(Cn2cncn2)cc(C(C)(C)C#N)c1 [Anastrozole] | -0.266 | -0.215 | -0.138 | -0.214
12 | COc1ccc(-c2ccc3c(N4CCOC[C@@H]4C)nc(N4CCOC[C@@H]4C)nc3n2)cc1CO | -0.388 | -0.435 | 0.471 | 0.461
13 | OCCn1cc(-c2ccc3c(c2)CC/C3=N\O)c(-c2ccncc2)n1 | 0.0626 | -0.345 | -0.311 | -0.458
14 | CC(/C=C1\SC(=S)N(CC(=O)O)C1=O)=C\c1ccccc1 [Epalrestat] | -0.577 | 0.146 | -0.6 | -0.384
15 | C[C@@H]1c2cccc(O)c2C(=O)C2=C(O)[C@]3(O)C(=O)C(C(N)=O)=C(O)[C@H](N(C)C)[C@@H]3[C@H](O)[C@@H]21.Cl [Doxycycline HCl] | -0.798 | -0.272 | 0 | -0.328

A stretch from the list above:
Row | Structure (SMILES) | OMR-Perf [1] | Prob-Test [2] | Prob-Naive [3] | Prob-Train [4]
8 | CC(C)CCNC(=O)C(CC(C)C)NC(=O)C1OC1C(=O)O (stereo not given) [Loxistatin Acid (E-64C)] | -0.406 | 0.174 | -0.484 | -0.0694
9 | CN(C)C(=N)NC(=N)N.Cl [Metformin hydrochloride (Glucophage)] | 0.066 | -0.183 | 0.507 | -0.178
